At least one structure is not confirmed: it was looked up by name or label, or the drawing left a doubt. Some of these results come from one statement about several compounds together.
Tests used:
Assay type in all cases: cell-based
cancer cell lines = settings: for cytotoxicity (qualitative): cancer cell lines
Experimental: (§1) In addition to the screening already discussed, several of the before-described compounds and chimeras were screened against several or all of a panel of ten to twenty-five cancerous cell lines as target cells and seven "normal" cell preparations. This screening utilized a sulforhodamine B cytotoxidity assay as discussed below.
SULFORHODAMINE B CYTOTOXICITY ASSAY
a. Stock drug solutions were prepared by dissolving drug in the appropriate solvent (determined during chemical characterization studies) and sterile filtering the drug-solvent solution through a sterile 0.2μ filter unit. An aliquot was taken from each filtered drug solution and the O.D. was measured to determine the drug concentration.
f. Incubate (37° C., 5-10 percent CO2 in humidified incubator) plates for a total of 72 hours. Check plates at 24 hour intervals microscopically for signs of cytotoxicity.
(§2) IC50 values; i.e., the concentration of Compound required to kill one-half of the treated cells, were then calculated.
All other cells or cell lines were obtained from the American Type Culture Collection (ATCC) (all except CHO cells are human or mouse cancer cell lines as described by the ATC).
Tables 1 and 2 herein below provide average IC50 data from five to all ten of the above cancer cells lines for fused ring enediyne compounds disclosed herein. Those tables provide a generic structure and a description of the R group of that generic structure for each compound. Compound numbers as noted hereinbefore are also provided. Table 3 contains data for two fused-ring enediyne compounds (Compounds 47 and 120) as well as data for six chimers. Table 4 contains cancer cell and noraml cell cytotoxicity data for one select fused ring enediyne, Compound 153 against a number of "normal" cell preparations and tumor cell lines. Table 5 contains cancer cell and normal cell cytotoxicity data for another fused ring enediyne, Compound 250 against a similar panel of cells.

[1] = test system: MOLT-4 (Leukemia) cell line; settings: Molt4 cells; read-out: concentration at which Molt4 cells were susceptible
Experimental: as §1, §2

[2] = test system: SK-Mel-28, M-14, M-21, Capan-1, Ovcar-3, Ovcar-4, UCLA-P-3, U-87, U-251 and Molt-4 cell lines; settings: range over ten tumor cell lines
Experimental: In other studies, IC50 values were determined for the anti-tumor agents dynemicin A, calicheamicin γ1^I, taxol, vinblastine/vincristine, doxorubicin, actinomycin D and bleomycin sulfate against the SK-Mel-28, M-14, M-21, Capan-1, Ovcar-3, Ovcar-4, UCLA-P-3, U-87, U-251 and Molt-4 cell lines.

Row | SMILES | cytotoxicity (qualitative) (cancer cell lines) | IC50 (cancer cell lines; all other cells, 4320 min, read-out: concentration at which all other cells were susceptible) | Range of Average IC50 Values, Cancer Cells (cancer cell lines; cancer cells, control drugs) | IC50 [1] | IC50 range [2]
1 | CC(COC(=O)N1c2ccccc2C23OC24CCCC3C#CC=CC#CC14)S(=O)(=O)c1ccccc1 (stereo not shown) [Compound 427] | reduced potency in cell killing |  |  |  | 
2 | CC(C)(COC(=O)N1c2ccccc2[C@@]23O[C@]24CCC[C@H]3C#C/C=C\C#C[C@H]14)S(=O)(=O)c1ccccc1 (relative stereo) [Compound 429] | reduced potency in cell killing |  |  |  | 
3 | CCN[C@H]1CO[C@@H](O[C@H]2[C@H](O[C@H]3C#C/C=C\C#C[C@]4(O)CC(=O)C(NC(=O)OC)=C3/C4=C\CSSSC)O[C@H](C)[C@@H](NO[C@H]3C[C@H](O)[C@H](SC(=O)c4c(C)c(I)c(O[C@@H]5O[C@@H](C)[C@H](O)[C@@H](OC)[C@H]5O)c(OC)c4OC)[C@@H](C)O3)[C@@H]2O)C[C@@H]1OC [Calicheamicin] |  | ≥ 3900 pM | 5 × 10^-5 -10^-12 | 1 pM | 10^-8 -10^-12
4 | CC(COC(=O)N1c2ccccc2C23OC24CCCC3C#CC=CC#CC14)S(=O)(=O)c1ccccc1 (stereo not shown) [Compound 428] | reduced potency in cell killing |  |  |  | 

— US5281710A, “Dynemicin analogs: synthesis, methods of preparation and use” (The Scripps Research Institute, priority 1992, dated 1994)
